{
  "source": "patent US9506933B2",
  "about": "(TOAGOSEI CO., LTD., priority 2011, dated 2016)",
  "assay": "peptide made by a vendor (Fmoc solid-phase peptide synthesis)",
  "conditions": "whole synthesis, HPLC peak area ratio",
  "note": "Ends that are not written are not given here.",
  "data": [
    {"substance": "MLPGLALLLLAAWTARA-OH", "values": [
      {"measurement": "final HPLC purity", "value": "92% to 94%"},
      {"measurement": "final purity (method not given)", "value": 94.38, "unit": "%"}
    ]}
  ]
}
